Experimental findings from patent publication US20170290925A1 (priority 2014, published 2017) are described below.

The series can be described thus: general procedure: solution-phase peptide synthesis; HATU/NMM. Conditions: conjugation step.

Substance “bis-tolylsulfonyl-propanoyl-benzamide-Glu-[NH-PEG(24u)-OMe]-[val-cit-PAB-MMAE]” displayed a conjugation yield of 56%.
